Measured values reported in the supplement of paper PMC10849652.
The list shows a part of the results.

By UniProt entry, the sequences of proteins in these tests, tags left out. Where a name states a change or a piece, a line headed by the entry shows the natural chain unless it says otherwise.
UniProt O43670: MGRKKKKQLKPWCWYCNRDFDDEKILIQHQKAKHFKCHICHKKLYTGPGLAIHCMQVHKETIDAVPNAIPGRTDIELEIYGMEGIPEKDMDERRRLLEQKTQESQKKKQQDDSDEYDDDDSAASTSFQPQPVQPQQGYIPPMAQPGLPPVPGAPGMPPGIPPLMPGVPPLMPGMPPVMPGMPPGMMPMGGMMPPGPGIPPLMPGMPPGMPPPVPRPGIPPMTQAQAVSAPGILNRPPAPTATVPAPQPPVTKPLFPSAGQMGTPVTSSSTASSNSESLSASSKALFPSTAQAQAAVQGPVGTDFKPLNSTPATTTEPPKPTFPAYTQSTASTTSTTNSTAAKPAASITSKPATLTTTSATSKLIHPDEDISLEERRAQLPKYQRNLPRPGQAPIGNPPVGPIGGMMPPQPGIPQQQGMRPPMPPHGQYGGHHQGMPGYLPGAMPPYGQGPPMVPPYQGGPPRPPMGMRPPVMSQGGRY
UniProt P52739: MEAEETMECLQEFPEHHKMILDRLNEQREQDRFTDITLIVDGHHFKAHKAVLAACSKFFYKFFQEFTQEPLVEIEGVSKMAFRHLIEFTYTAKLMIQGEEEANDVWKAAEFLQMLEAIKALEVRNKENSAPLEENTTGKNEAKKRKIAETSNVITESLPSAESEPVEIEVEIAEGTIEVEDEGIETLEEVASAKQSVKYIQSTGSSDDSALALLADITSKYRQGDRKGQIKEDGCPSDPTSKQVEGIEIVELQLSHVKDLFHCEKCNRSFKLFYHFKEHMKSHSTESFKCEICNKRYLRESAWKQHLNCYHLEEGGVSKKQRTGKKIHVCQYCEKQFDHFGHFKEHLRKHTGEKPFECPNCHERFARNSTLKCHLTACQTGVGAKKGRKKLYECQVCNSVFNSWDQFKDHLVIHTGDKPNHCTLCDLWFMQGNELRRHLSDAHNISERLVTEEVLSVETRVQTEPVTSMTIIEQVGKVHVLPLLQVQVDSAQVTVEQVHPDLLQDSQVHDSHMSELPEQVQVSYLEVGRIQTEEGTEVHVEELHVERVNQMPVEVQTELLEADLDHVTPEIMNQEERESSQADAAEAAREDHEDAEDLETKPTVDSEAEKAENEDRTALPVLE
UniProt Q9NRM2: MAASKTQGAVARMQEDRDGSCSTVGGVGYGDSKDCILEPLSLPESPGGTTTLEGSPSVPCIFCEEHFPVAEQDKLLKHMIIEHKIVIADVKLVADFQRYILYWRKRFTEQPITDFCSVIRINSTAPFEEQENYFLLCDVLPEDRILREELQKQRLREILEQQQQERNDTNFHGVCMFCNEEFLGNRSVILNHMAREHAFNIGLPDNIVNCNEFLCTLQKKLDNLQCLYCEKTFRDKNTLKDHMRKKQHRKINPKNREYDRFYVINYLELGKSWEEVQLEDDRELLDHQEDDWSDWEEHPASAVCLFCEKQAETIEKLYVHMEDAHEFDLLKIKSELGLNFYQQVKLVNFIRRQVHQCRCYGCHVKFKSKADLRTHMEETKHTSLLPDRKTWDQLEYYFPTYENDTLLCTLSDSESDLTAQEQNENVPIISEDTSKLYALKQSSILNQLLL
UniProt O43149: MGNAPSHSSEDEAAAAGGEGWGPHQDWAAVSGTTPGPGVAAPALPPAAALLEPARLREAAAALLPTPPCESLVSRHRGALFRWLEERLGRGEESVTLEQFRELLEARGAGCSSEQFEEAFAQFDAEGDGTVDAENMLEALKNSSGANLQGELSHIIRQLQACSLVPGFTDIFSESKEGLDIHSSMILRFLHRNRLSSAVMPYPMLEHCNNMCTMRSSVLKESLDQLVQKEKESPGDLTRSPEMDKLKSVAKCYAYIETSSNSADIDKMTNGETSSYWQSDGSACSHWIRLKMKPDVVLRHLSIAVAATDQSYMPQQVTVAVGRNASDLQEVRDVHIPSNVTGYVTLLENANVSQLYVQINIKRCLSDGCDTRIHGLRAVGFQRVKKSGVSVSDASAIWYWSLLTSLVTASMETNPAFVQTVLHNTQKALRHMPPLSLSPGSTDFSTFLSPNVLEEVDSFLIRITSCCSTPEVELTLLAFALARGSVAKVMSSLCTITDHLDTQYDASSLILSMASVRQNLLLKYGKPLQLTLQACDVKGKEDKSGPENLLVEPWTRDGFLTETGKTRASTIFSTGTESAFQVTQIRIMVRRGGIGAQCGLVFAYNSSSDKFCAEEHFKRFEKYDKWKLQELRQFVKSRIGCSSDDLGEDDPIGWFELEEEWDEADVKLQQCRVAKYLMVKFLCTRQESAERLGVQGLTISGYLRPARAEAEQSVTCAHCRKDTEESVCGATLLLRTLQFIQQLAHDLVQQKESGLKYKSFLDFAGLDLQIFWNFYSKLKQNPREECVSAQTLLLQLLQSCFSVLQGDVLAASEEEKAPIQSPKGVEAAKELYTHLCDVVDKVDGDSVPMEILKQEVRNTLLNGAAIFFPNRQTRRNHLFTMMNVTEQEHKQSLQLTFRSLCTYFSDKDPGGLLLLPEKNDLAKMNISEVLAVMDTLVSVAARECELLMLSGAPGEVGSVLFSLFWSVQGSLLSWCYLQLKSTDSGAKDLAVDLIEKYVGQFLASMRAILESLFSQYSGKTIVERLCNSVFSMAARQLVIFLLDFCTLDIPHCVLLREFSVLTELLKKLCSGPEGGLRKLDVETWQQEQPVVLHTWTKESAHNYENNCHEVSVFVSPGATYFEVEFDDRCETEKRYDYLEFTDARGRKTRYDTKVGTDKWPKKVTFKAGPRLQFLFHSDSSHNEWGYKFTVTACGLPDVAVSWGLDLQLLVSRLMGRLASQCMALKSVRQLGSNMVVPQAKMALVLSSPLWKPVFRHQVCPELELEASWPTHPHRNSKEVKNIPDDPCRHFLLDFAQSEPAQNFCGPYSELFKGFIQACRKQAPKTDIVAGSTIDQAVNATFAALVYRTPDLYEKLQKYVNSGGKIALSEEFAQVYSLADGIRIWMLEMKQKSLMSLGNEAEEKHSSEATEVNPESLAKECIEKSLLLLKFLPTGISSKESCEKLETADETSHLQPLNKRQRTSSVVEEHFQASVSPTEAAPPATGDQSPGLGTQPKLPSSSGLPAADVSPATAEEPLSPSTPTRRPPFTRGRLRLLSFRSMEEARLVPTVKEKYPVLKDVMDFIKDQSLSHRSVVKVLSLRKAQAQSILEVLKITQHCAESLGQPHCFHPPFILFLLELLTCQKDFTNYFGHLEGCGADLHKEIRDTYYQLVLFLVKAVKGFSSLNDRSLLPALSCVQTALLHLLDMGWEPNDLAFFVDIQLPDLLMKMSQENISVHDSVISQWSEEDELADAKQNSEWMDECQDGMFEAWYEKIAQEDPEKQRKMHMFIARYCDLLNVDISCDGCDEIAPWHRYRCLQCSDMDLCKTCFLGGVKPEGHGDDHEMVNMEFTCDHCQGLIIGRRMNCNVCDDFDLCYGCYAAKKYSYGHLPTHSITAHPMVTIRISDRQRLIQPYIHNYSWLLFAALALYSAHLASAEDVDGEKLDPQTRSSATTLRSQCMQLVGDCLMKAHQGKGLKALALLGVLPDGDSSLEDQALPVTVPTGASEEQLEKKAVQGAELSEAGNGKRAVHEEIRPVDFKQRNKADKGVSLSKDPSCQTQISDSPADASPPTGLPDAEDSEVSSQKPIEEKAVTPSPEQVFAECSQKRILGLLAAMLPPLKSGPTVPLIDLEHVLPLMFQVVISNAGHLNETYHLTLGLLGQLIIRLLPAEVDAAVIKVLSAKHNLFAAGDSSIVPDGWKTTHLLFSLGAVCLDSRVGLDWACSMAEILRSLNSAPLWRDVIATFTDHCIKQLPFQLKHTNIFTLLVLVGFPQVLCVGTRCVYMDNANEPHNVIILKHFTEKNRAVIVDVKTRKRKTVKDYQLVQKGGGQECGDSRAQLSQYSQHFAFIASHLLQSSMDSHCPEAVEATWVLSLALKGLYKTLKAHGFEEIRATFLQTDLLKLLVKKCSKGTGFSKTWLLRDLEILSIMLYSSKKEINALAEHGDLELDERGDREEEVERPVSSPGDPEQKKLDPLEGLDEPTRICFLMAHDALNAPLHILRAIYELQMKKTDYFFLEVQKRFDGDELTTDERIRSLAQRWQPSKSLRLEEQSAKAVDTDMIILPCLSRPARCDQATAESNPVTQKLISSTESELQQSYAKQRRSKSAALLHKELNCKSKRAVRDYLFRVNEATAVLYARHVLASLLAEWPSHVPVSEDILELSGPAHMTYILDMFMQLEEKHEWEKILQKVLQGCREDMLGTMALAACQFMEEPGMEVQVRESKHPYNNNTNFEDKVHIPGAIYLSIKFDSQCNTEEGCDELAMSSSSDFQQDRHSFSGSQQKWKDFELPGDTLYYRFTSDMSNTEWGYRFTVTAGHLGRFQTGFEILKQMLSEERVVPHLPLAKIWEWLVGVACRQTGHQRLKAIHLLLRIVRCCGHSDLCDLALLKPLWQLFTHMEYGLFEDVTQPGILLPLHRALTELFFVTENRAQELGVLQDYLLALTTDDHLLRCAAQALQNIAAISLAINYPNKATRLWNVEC
UniProt Q96NB3: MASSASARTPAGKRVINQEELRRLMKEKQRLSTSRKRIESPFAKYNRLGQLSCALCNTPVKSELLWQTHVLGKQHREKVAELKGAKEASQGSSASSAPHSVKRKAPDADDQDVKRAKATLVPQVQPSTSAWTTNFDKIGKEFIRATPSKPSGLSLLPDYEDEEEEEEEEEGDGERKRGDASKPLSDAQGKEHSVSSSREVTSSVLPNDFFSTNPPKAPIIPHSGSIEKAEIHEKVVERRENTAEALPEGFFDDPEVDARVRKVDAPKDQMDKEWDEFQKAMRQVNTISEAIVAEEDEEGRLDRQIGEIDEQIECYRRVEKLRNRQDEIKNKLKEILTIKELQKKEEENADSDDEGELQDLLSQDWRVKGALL
UniProt P52747: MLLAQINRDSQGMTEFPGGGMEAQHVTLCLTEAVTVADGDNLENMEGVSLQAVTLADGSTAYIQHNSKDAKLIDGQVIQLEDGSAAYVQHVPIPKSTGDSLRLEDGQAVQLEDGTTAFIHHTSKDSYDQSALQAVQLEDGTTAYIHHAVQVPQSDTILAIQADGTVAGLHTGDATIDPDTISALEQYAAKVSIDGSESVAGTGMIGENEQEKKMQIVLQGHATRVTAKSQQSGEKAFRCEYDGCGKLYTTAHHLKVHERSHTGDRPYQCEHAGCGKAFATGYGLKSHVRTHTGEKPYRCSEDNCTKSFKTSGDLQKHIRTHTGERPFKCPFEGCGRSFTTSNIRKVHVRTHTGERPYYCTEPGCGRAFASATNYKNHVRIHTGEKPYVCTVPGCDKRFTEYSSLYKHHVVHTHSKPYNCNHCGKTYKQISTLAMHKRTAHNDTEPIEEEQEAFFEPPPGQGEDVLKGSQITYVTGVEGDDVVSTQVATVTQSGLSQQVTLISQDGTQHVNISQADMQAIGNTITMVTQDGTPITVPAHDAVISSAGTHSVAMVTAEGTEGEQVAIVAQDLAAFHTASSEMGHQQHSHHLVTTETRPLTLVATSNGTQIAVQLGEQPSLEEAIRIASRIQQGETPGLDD
UniProt O75844: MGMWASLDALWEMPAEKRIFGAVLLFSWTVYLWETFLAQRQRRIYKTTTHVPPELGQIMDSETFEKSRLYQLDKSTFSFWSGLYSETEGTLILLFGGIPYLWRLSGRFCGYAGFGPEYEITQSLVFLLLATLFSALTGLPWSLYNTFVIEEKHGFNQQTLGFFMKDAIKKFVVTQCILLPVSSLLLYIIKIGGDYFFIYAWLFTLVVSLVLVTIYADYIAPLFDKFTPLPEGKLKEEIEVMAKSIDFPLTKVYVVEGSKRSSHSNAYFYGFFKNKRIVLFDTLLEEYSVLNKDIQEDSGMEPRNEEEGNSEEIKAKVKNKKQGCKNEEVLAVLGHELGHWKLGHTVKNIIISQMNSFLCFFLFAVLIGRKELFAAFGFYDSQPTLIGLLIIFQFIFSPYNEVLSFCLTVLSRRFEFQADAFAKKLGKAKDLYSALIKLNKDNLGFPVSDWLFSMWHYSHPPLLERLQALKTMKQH
UniProt O95229: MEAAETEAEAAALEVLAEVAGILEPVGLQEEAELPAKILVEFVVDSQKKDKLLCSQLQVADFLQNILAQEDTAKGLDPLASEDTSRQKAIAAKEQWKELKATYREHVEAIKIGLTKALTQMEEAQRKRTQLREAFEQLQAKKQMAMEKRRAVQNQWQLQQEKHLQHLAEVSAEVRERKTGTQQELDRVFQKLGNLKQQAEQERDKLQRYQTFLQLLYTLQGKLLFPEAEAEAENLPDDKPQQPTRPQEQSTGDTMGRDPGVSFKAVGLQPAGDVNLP

Tests used:
Experiment in all cases: log2 fold change, soluble protein after heating vs DMSO (PISA); higher = thermal stabilisation; K562 lysate, 10 uM; active = over 0.2 and 3.5 SD of the protein, either way, in both replicates (recomputed)
[1] = compound: C#Cc1cccc(Nc2ncnc3cc(OCCOC)c(OCCOC)cc23)c1 [erlotinib]
Summary of the method: (§1)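 Soluble protein was defined as the supernatant remaining after 21,000xg for 90 min, following pooling of heated aliquots and adjustment to 0.5% NP-40 at 4°C. Before that, crude K562 extract at 1 mg/mL protein in PBS pH 7.4 with 1 mM MgCl2 was treated with 10 μM compound for 30 min and heated for 3 min across 48°C-58°C. Quantification used TMTpro 16plex LC-MS/MS with channel sums equalised, and values are log-two fold changes in thermal stability relative to solvent controls from duplicates.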

[2] = compound: C/C(=N\NC(=O)C1=CC(=CC=C1)S(=O)(=O)N2CCOCC2)/C3=C(C=CC(=C3)Cl)O
Summary of the method: as §1

[3] = compound: C1=CC(=CC=C1C2=NC3=C(N2)C=C(C=C3)C(=O)N)OC4=CC=C(C=C4)Cl
Summary of the method: as §1

[4] = compound: C1=CC2=C(C=CC(=C2)/C=C\3/C(=O)NC(=NCC4=CC=CS4)S3)N=C1
Summary of the method: as §1

[5] = compound: C1=CC2=NC=CN=C2C=C1/C=C/3\C(=O)NC(=O)S3
Summary of the method: as §1

[6] = compound: C1=CC=C(C=C1)C2=NC(=C(N2)C3=CC=NC=C3)C4=CC(=C(C=C4)Cl)O
Summary of the method: as §1

[7] = compound: C1=CC=C2C(=C1)C3=NNC4=CC=CC(=C43)C2=O
Summary of the method: as §1

[8] = compound: C1CCN(C1)C(=O)NC2=CC=CC(=C2)NC3=NC=C(C(=N3)NCCC4=CN=CN4)Br
Summary of the method: as §1

[9] = compound: C1CN(CCC1(CC2=CC=C(C=C2)Cl)N)C3=NC=NC4=C3C=CN4
Summary of the method: as §1

[10] = compound: C1COCCN1CCN2C3=CC=CC=C3N=C2NC(=O)C4=CC(=CC=C4)[N+](=O)[O-] [IRAK-1-4 Inhibitor I]
Summary of the method: as §1

[11] = compound: C=CC(=O)N1CCC[C@@H](n2nc(-c3ccc(Oc4ccccc4)cc3)c3c(N)ncnc32)C1 [ibrutinib]
Summary of the method: as §1

[12] = compound: CC(=O)c1cnc2ccc(-c3cc(Cl)c(O)c(Cl)c3)nc2c1N[C@H]1CC[C@H](CN(C)C)CC1
Summary of the method: as §1

[13] = compound: CC(C)(C)Cn1c(N)nc2ccc(-c3[nH]c(C(C)(C)C)nc3-c3ccc(F)cc3)nc21 [ralimetinib]
Summary of the method: as §1

[14] = compound: CC(C)(O)CC(=O)NCCn1ccc2ncnc(Nc3ccc(Oc4cccc(C(F)(F)F)c4)c(Cl)c3)c21
Summary of the method: as §1

[15] = compound: CC(C)C1=C2N=C(C=C(N2N=C1)NCC3=CC=CC=C3)NCCCCCCN
Summary of the method: as §1

[16] = compound: CC1=C(C(CC(=O)N1)C2=CC=C(C=C2)C(F)(F)F)C(=O)NC3=C(C=C4C(=C3)C=NN4)F
Summary of the method: as §1

[17] = compound: CC1=C(C2=C(C=C1)C(=O)C3=CC=CC=C3N2CCCN)C
Summary of the method: as §1

[18] = compound: CC1=C(C=C(C=C1)NC(=O)C2=CC(=CC=C2)C(C)(C)C#N)NC3=CC4=C(C=C3)N=CN(C4=O)C
Summary of the method: as §1

[19] = compound: CC1=C(C=C(C=C1)NC(=O)C2=CC(=CC=C2)N(C)C)NC(=O)C3=CC=C(C=C3)O
Summary of the method: as §1

[20] = compound: CC1=CC=C(C=C1)SC2=C3C=C(SC3=CN=C2)C(=O)N
Summary of the method: as §1

Measured: log2 fold change

ZHX1 (UniProt Q9UKY1)
inactive: [1] 0.02 | [2] -0.094 | [3] 0.082 | [4] 0.051 | [5] -0.027 | [6] -0.027 | [7] -0.077 | [8] -0.119 | [9] 0.026 | [10] -0.055 | [11] -0.026 | [12] 0.015 | [13] -0.007 | [14] 0.034 | [15] 0.127 | [16] 0.109 | [17] -0.144 | [18] -0.053 | [19] 0.024 | [20] -0.013

ZNF207 isoform 4 (UniProt O43670)
inactive: [1] 0.002 | [2] -0.014 | [3] 0.059 | [4] -0.009 | [5] 0.007 | [6] -0.051 | [7] 0 | [8] 0 | [9] 0.003 | [10] 0.003 | [11] 0.058 | [12] 0.01 | [13] 0.004 | [14] -0.008 | [15] -0.038 | [16] 0.032 | [17] -0.025 | [18] -0.015 | [19] 0.017 | [20] -0.022

ZNF131 (UniProt P52739)
inactive: [1] 0.011 | [2] 0.022 | [3] -0.007 | [4] -0.035 | [5] 0.067 | [6] 0.005 | [7] -0.039 | [8] 0.005 | [9] 0.001 | [10] 0.01 | [11] -0.053 | [12] 0.026 | [13] 0.023 | [14] -0.019 | [15] 0.023 | [16] 0.024 | [17] 0 | [18] 0.024 | [19] -0.015 | [20] -0.007

2 neighbouring entries from above, for reference:
ZNF207 isoform 4 (UniProt O43670)
inactive: [1] 0.002 | [2] -0.014 | [3] 0.059 | [4] -0.009 | [5] 0.007 | [6] -0.051 | [7] 0 | [8] 0 | [9] 0.003 | [10] 0.003 | [11] 0.058 | [12] 0.01 | [13] 0.004 | [14] -0.008 | [15] -0.038 | [16] 0.032 | [17] -0.025 | [18] -0.015 | [19] 0.017 | [20] -0.022

ZNF131 (UniProt P52739)
inactive: [1] 0.011 | [2] 0.022 | [3] -0.007 | [4] -0.035 | [5] 0.067 | [6] 0.005 | [7] -0.039 | [8] 0.005 | [9] 0.001 | [10] 0.01 | [11] -0.053 | [12] 0.026 | [13] 0.023 | [14] -0.019 | [15] 0.023 | [16] 0.024 | [17] 0 | [18] 0.024 | [19] -0.015 | [20] -0.007

The results go on:

hCG_1984214 (UniProt I3L0E3)
inactive: [1] 0.025 | [2] -0.037 | [3] 0.008 | [4] 0.046 | [5] 0.021 | [6] -0.01 | [7] -0.006 | [8] 0.034 | [9] -0.01 | [10] -0.016 | [11] 0.017 | [12] -0.086 | [13] -0.012 | [14] 0.023 | [15] 0.031 | [16] 0.025 | [17] -0.037 | [18] -0.032 | [19] -0.02 | [20] -0.004

ZNF618 (UniProt Q5T7W0)
inactive: [1] 0.062 | [2] 0.059 | [3] 0.002 | [4] 0.004 | [5] -0.02 | [6] 0.025 | [7] 0.029 | [8] 0.001 | [9] 0.016 | [10] -0.01 | [11] -0.037 | [12] -0.043 | [13] 0.009 | [14] -0.011 | [15] -0.034 | [16] -0.092 | [17] 0.007 | [18] 0.039 | [19] 0.051 | [20] -0.02

ZYG11B (UniProt Q9C0D3)
inactive: [1] 0.046 | [2] -0.022 | [3] 0.064 | [4] 0.006 | [5] -0.023 | [6] -0.016 | [7] -0.04 | [8] -0.014 | [9] 0.042 | [10] 0.014 | [11] 0 | [12] 0.01 | [13] 0.022 | [14] -0.033 | [15] -0.02 | [16] -0.012 | [17] -0.005 | [18] 0.137 | [19] 0.015 | [20] -0.018

ZNF277 (UniProt Q9NRM2)
inactive: [1] 0.011 | [2] 0.016 | [3] -0.044 | [4] -0.06 | [5] -0.003 | [6] 0.006 | [7] 0.003 | [8] -0.024 | [9] -0.021 | [10] 0.01 | [11] -0.009 | [12] 0.004 | [13] 0.061 | [14] -0.005 | [15] -0.034 | [16] -0.069 | [17] -0.027 | [18] -0.01 | [19] -0.016 | [20] 0.015

ZZEF1 (UniProt O43149)
inactive: [1] 0.008 | [2] -0.019 | [3] -0.012 | [4] 0.019 | [5] -0.012 | [6] -0.009 | [7] -0.017 | [8] -0.011 | [9] -0.009 | [10] 0.017 | [11] 0.018 | [12] -0.009 | [13] -0.002 | [14] -0.057 | [15] -0.014 | [16] -0.005 | [17] -0.063 | [18] 0.023 | [19] 0.009 | [20] -0.005

ZMIZ1 (UniProt Q9ULJ6)
inactive: [1] -0.014 | [2] 0.052 | [3] 0.075 | [4] -0.042 | [5] -0.006 | [6] 0.008 | [7] -0.032 | [8] 0 | [9] -0.021 | [10] -0.003 | [11] 0.04 | [12] -0.022 | [13] -0.007 | [14] -0.095 | [15] 0.012 | [16] -0.013 | [17] -0.026 | [18] -0.048 | [19] 0.016 | [20] -0.081

ZNF830 (UniProt Q96NB3)
inactive: [1] -0.028 | [2] 0.03 | [3] 0.024 | [4] 0 | [5] -0.036 | [6] 0.029 | [7] 0.014 | [8] -0.017 | [9] 0.021 | [10] 0.009 | [11] 0.048 | [12] -0.009 | [13] -0.022 | [14] 0.016 | [15] -0.005 | [16] 0.055 | [17] -0.031 | [18] 0.006 | [19] -0.016 | [20] -0.022

ZNF143 (UniProt P52747)
inactive: [1] -0.029 | [2] -0.037 | [3] 0.01 | [4] 0.039 | [5] -0.005 | [6] 0.018 | [7] -0.034 | [8] 0.007 | [9] -0.002 | [10] -0.002 | [11] -0.031 | [12] 0.011 | [13] -0.004 | [14] 0.027 | [15] 0.041 | [16] 0.009 | [17] -0.085 | [18] 0.016 | [19] 0.015 | [20] -0.01

ZNF638 (UniProt Q14966)
inactive: [1] -0.002 | [2] -0.065 | [3] -0.018 | [4] -0.017 | [5] -0.019 | [6] 0.024 | [7] -0.023 | [8] -0.028 | [9] 0.025 | [10] -0.047 | [11] 0.019 | [12] 0.015 | [13] 0.027 | [14] 0.018 | [15] 0.079 | [16] 0.023 | [17] -0.023 | [18] -0.036 | [19] 0.017 | [20] 0.006

ZNF512 (UniProt Q96ME7)
inactive: [1] 0.014 | [2] -0.063 | [3] 0 | [4] -0.137 | [5] -0.051 | [6] 0.057 | [7] 0.134 | [8] 0.032 | [9] 0.011 | [10] 0.014 | [11] 0.074 | [12] -0.026 | [13] 0.04 | [14] -0.094 | [15] 0.001 | [16] 0.028 | [17] -0.028 | [18] 0 | [19] -0.009 | [20] 0.002

ZMPSTE24 (UniProt O75844)
inactive: [1] -0.006 | [2] 0.022 | [3] 0.007 | [4] 0.01 | [5] -0.012 | [6] -0.005 | [7] -0.029 | [8] 0.006 | [9] -0.003 | [10] 0.038 | [11] -0.023 | [12] -0.002 | [13] 0.009 | [14] -0.034 | [15] 0 | [16] 0.004 | [17] -0.002 | [18] 0.018 | [19] -0.017 | [20] -0.017

ZNF318 (UniProt Q5VUA4)
inactive: [1] 0.026 | [2] -0.033 | [3] -0.054 | [4] -0.015 | [5] -0.078 | [6] 0.003 | [7] 0.004 | [8] 0.023 | [9] 0.004 | [10] 0.012 | [11] 0.022 | [12] -0.043 | [13] 0.029 | [14] -0.06 | [15] 0.014 | [16] 0.023 | [17] 0.038 | [18] -0.036 | [19] 0.046 | [20] 0.083

ZWINT (UniProt O95229)
inactive: [1] 0.01 | [2] 0.04 | [3] -0.021 | [4] 0.002 | [5] 0.012 | [6] -0.002 | [7] 0.032 | [8] -0.003 | [9] 0.01 | [10] 0.005 | [11] 0.03 | [12] 0.007 | [13] -0.002 | [14] -0.039 | [15] 0.032 | [16] -0.027 | [17] -0.002 | [18] -0.013 | [19] -0.026 | [20] -0.044
